# According to the supplement of paper PMC8728848:
# Some of the results follow.
# B1: Loc1 (Escherichia coli) (protein)
# chain: APCALTNVGEQRGTYILKPLSMKGNLTAEKIENTGNIIECTDLQETTNAIKVHFLTQNALKFKVGSRHYIINFPFEYDGKKIELPGKSSYNLEEMLSAINFTIPYSIASVSDSSNTADIFPGTPFPLLFEIEVSSCTGNNTNCNSVRFNYNLNTILQVNLMTHHHHHH
# Columns and labels:
# Experiment in all cases: glycan array binding signal (z-score within array); higher = stronger binding
# Details in all cases: glycan notation: IUPAC condensed, linker removed
# [1] = target: Fuc(a1-2)Gal(b1-4)[Fuc(a1-3)]GlcNAc(b1-2)Man(a1-3)[Fuc(a1-2)Gal(b1-4)[Fuc(a1-3)]GlcNAc(b1-2)Man(a1-6)]Man(b1-4)GlcNAc(b1-4)[Fuc(a1-6)]GlcNAc
# Summary of the method: (§1)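 From the Consortium for Functional Glycomics database, 3228 arrays were curated, keeping only those whose protein sequence was available. Binding is given as a within-array Z-score averaged across arrays sharing a protein sequence and across linkers. Negative Z-scores can be read as non-binding.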
# [2] = target: Fuc(a1-2)Gal(b1-4)[Fuc(a1-3)]GlcNAc(b1-2)[Fuc(a1-2)Gal(b1-4)[Fuc(a1-3)]GlcNAc(b1-4)]Man(a1-3)[Fuc(a1-2)Gal(b1-4)[Fuc(a1-3)]GlcNAc(b1-2)Man(a1-6)]Man(b1-4)GlcNAc(b1-4)GlcNAc
# Summary of the method: as §1
# [3] = target: Fuc(a1-2)Gal(b1-4)[Fuc(a1-3)]GlcNAc(b1-3)Gal(b1-4)[Fuc(a1-3)]GlcNAc
# Summary of the method: as §1
# [4] = target: Fuc(a1-2)Gal(b1-4)[Fuc(a1-3)]GlcNAc(b1-3)Gal(b1-4)[Fuc(a1-3)]GlcNAc(b1-3)Gal(b1-4)[Fuc(a1-3)]GlcNAc
# Summary of the method: as §1
# [5] = target: Fuc(a1-2)Gal(b1-4)[Fuc(a1-3)]GlcNAc(b1-3)GalNAc
# Summary of the method: as §1
# [6] = target: Fuc(a1-2)Gal(b1-4)[Fuc(a1-3)]GlcNAc(b1-3)[Neu5Ac(a2-6)Gal(b1-4)GlcNAc(b1-6)]Gal(b1-4)Glc
# Summary of the method: as §1
# [7] = target: Fuc(a1-2)Gal3S(b1-4)GlcNAc
# Summary of the method: as §1
# [8] = target: Fuc(a1-2)Gal6S(b1-3)GlcNAc
# Summary of the method: as §1
# [9] = target: Fuc(a1-2)Gal6S(b1-3)GlcNAc6S
# Summary of the method: as §1
# Fuc(a1-2)Gal6S(b1-4)Glc = target: Fuc(a1-2)Gal6S(b1-4)Glc
# Summary of the method: as §1
# [10] = target: Fuc(a1-2)Gal6S(b1-4)Glc6S
# Summary of the method: as §1
# Fuc(a1-2)[Gal(a1-3)]Gal = target: Fuc(a1-2)[Gal(a1-3)]Gal
# Summary of the method: as §1
# [11] = target: Fuc(a1-2)[Gal(a1-3)]Gal(b1-3)GalNAc
# Summary of the method: as §1
# [12] = target: Fuc(a1-2)[Gal(a1-3)]Gal(b1-3)GalNAc(b1-3)Gal(a1-4)Gal(b1-4)Glc
# Summary of the method: as §1
# [13] = target: Fuc(a1-2)[Gal(a1-3)]Gal(b1-3)GlcNAc
# Summary of the method: as §1
# [14] = target: Fuc(a1-2)[Gal(a1-3)]Gal(b1-3)GlcNAc(b1-2)Man(a1-3)[Fuc(a1-2)[Gal(a1-3)]Gal(b1-3)GlcNAc(b1-2)Man(a1-6)]Man(b1-4)GlcNAc(b1-4)GlcNAc
# Summary of the method: as §1
# [15] = target: Fuc(a1-2)[Gal(a1-3)]Gal(b1-3)GlcNAc(b1-2)Man(a1-3)[Fuc(a1-2)[Gal(a1-3)]Gal(b1-3)GlcNAc(b1-2)Man(a1-6)]Man(b1-4)GlcNAc(b1-4)[Fuc(a1-6)]GlcNAc
# Summary of the method: as §1
# [16] = target: Fuc(a1-2)[Gal(a1-3)]Gal(b1-3)GlcNAc(b1-3)GalNAc
# Summary of the method: as §1
# [17] = target: Fuc(a1-2)[Gal(a1-3)]Gal(b1-3)GlcNAc(b1-6)GalNAc
# Summary of the method: as §1
# [18] = target: Fuc(a1-2)[Gal(a1-3)]Gal(b1-4)Glc
# Summary of the method: as §1
# [19] = target: Fuc(a1-2)[Gal(a1-3)]Gal(b1-4)GlcNAc
# Summary of the method: as §1
# [20] = target: Fuc(a1-2)[Gal(a1-3)]Gal(b1-4)GlcNAc(b1-2)Man
# Summary of the method: as §1
# [21] = target: Fuc(a1-2)[Gal(a1-3)]Gal(b1-4)GlcNAc(b1-2)Man(a1-3)[Fuc(a1-2)[Gal(a1-3)]Gal(b1-4)GlcNAc(b1-2)Man(a1-6)]Man(b1-4)GlcNAc(b1-4)GlcNAc
# Summary of the method: as §1
# [22] = target: Fuc(a1-2)[Gal(a1-3)]Gal(b1-4)GlcNAc(b1-2)Man(a1-3)[Fuc(a1-2)[Gal(a1-3)]Gal(b1-4)GlcNAc(b1-2)Man(a1-6)]Man(b1-4)GlcNAc(b1-4)[Fuc(a1-6)]GlcNAc
# Summary of the method: as §1
# [23] = target: Fuc(a1-2)[Gal(a1-3)]Gal(b1-4)GlcNAc(b1-3)GalNAc
# Summary of the method: as §1
# [24] = target: Fuc(a1-2)[Gal(a1-3)]Gal(b1-4)GlcNAc(b1-3)[Fuc(a1-2)[Gal(a1-3)]Gal(b1-4)GlcNAc(b1-6)]GalNAc
# Summary of the method: as §1
# [25] = target: Fuc(a1-2)[Gal(a1-3)]Gal(b1-4)GlcNAc(b1-6)GalNAc
# Summary of the method: as §1
# [26] = target: Fuc(a1-2)[Gal(a1-3)]Gal(b1-4)[Fuc(a1-3)]Glc
# Summary of the method: as §1
# [27] = target: Fuc(a1-2)[Gal(a1-3)]Gal(b1-4)[Fuc(a1-3)]GlcNAc
# Summary of the method: as §1
# [28] = target: Fuc(a1-2)[Gal(a1-3)]Gal(b1-4)[Fuc(a1-3)]GlcNAc(b1-3)GalNAc
# Summary of the method: as §1
# [29] = target: Fuc(a1-2)[Gal(a1-4)]Gal(b1-4)GlcNAc
# Summary of the method: as §1
# [30] = target: Fuc(a1-2)[GalNAc(a1-3)]Gal
# Summary of the method: as §1
# [31] = target: Fuc(a1-2)[GalNAc(a1-3)]Gal(b1-3)GalNAc(a1-3)[Fuc(a1-2)]Gal(b1-4)GlcNAc
# Summary of the method: as §1
# [32] = target: Fuc(a1-2)[GalNAc(a1-3)]Gal(b1-3)GalNAc(b1-3)Gal(a1-4)Gal(b1-4)Glc
# Summary of the method: as §1
# [33] = target: Fuc(a1-2)[GalNAc(a1-3)]Gal(b1-3)GlcNAc
# Summary of the method: as §1
# [34] = target: Fuc(a1-2)[GalNAc(a1-3)]Gal(b1-3)GlcNAc(b1-2)Man(a1-3)[Fuc(a1-2)[GalNAc(a1-3)]Gal(b1-3)GlcNAc(b1-2)Man(a1-6)]Man(b1-4)GlcNAc(b1-4)GlcNAc
# Summary of the method: as §1
# [35] = target: Fuc(a1-2)[GalNAc(a1-3)]Gal(b1-3)GlcNAc(b1-2)Man(a1-3)[Fuc(a1-2)[GalNAc(a1-3)]Gal(b1-3)GlcNAc(b1-2)Man(a1-6)]Man(b1-4)GlcNAc(b1-4)[Fuc(a1-6)]GlcNAc
# Summary of the method: as §1
# [36] = target: Fuc(a1-2)[GalNAc(a1-3)]Gal(b1-3)GlcNAc(b1-3)GalNAc
# Summary of the method: as §1
binder,measurement,setting,value
B1,glycan array binding signal (z-score),[1],-0.112
same,glycan array binding signal (z-score),[2],0.799
same,glycan array binding signal (z-score),[3],-0.064
same,glycan array binding signal (z-score),[4],-0.457
same,glycan array binding signal (z-score),[5],0.624
same,glycan array binding signal (z-score),[6],-0.511
same,glycan array binding signal (z-score),[7],-0.245
same,glycan array binding signal (z-score),[8],-0.285
same,glycan array binding signal (z-score),[9],-0.314
same,glycan array binding signal (z-score),Fuc(a1-2)Gal6S(b1-4)Glc,0.046
same,glycan array binding signal (z-score),[10],-0.953
same,glycan array binding signal (z-score),Fuc(a1-2)[Gal(a1-3)]Gal,-0.14
same,glycan array binding signal (z-score),[11],0.04
same,glycan array binding signal (z-score),[12],0.29
same,glycan array binding signal (z-score),[13],-0.111
same,glycan array binding signal (z-score),[14],-0.663
same,glycan array binding signal (z-score),[15],-0.489
same,glycan array binding signal (z-score),[16],-0.405
same,glycan array binding signal (z-score),[17],1.41
same,glycan array binding signal (z-score),[18],-0.253
same,glycan array binding signal (z-score),[19],2
same,glycan array binding signal (z-score),[20],-0.561
same,glycan array binding signal (z-score),[21],1.97
same,glycan array binding signal (z-score),[22],-0.644
same,glycan array binding signal (z-score),[23],-0.146
same,glycan array binding signal (z-score),[24],1.05
same,glycan array binding signal (z-score),[25],-0.577
same,glycan array binding signal (z-score),[26],0.22
same,glycan array binding signal (z-score),[27],-0.548
same,glycan array binding signal (z-score),[28],1.01
same,glycan array binding signal (z-score),[29],0.397
same,glycan array binding signal (z-score),[30],-0.147
same,glycan array binding signal (z-score),[31],-0.782
same,glycan array binding signal (z-score),[32],-0.019
same,glycan array binding signal (z-score),[33],-0.651
same,glycan array binding signal (z-score),[34],-0.067
same,glycan array binding signal (z-score),[35],0.796
same,glycan array binding signal (z-score),[36],0.693

# An excerpt of these results, with tabs:
binder	measurement	setting	value
B1	glycan array binding signal (z-score)	[18]	-0.253
same	glycan array binding signal (z-score)	[19]	2
